Results: patent US4005096A, “Therapeutically active phenoxyalkylamines” (Biersdorf Aktiengesellschaft, priority 1973, dated 1977)
Values joined by “and” are separate entries in the source; they are usually repeats but may differ in a detail not shown here. Equal values may be shown once. Where a name gives a salt, the structure may show the parent alone. At least one read-out could not be matched to a standard name with certainty.

Tested on: rats having artificially promoted high blood pressure (according to Goldblatt)
Test: blood pressure reduction in rats having artificially promoted high blood pressure (according to Goldblatt), plethysmographic at base of tail
Assay type: in vivo
Details: single dose, rat; for Maximum blood pressure reduction, diastolic (percent of initial value) / Maximum blood pressure reduction, systolic (percent of initial value): at the time given in the same line, dioxalate dihydrate
Method: To show the blood pressure reducing properties of typical compounds according to the invention, products of the Examples were administered, to rats having artificially promoted high blood pressure (according to Goldblatt), in the form of solution either by injection under the skin of the back (subcutaneously) or by means of a stomach tube (perorally). 1,2.5 and 4 hours (and 1.75 hours in the case of Compound A) after administration of the substance the systolic and diastolic blood pressures were measured plethysmographically at the base of the tail of the rat. In the following Table I there is given for each of the individual compounds (designated A to M) the average value of the blood pressure in mm Hg before the administration of the compound, the time (determined from the measuring time) of maximum blood pressure reduction and the maximum reduction of the systolic and diastolic blood pressures expressed as a percentage of the initial value after a single administration of the dose.

| Structure (SMILES) | Time of maximum blood pressure reduction, hours after application (10 mg/kg s.c.) | further results |
| --- | --- | --- |
| Cc1cccnc1CNCCOc1ccccc1Cl [Compound H, N-[(3-Methyl-2-pyridyl)-methyl]-o-chloro-phenoxyethylamineoxalate hydrate] | 2.5 h | – |
| COc1ccccc1OCCNCc1ncccc1O.Cl.Cl [Compound M, N-[(3-Hydroxy-2-pyridyl)-methyl]-o-methoxy-phenoxyethylamine dihydrochloride] | 4 h | – |
| Clc1ccccc1OCCCNCCc1ccncc1 [Compound F, N-[4-Pyridyl-ethyl(2)]-o-chloro-phenoxypropylamine dioxalate dihydrate] | – | Maximum blood pressure reduction, diastolic (percent of initial value) (10 mg/kg s.c.): -19% and -17%; Maximum blood pressure reduction, systolic (percent of initial value) (10 mg/kg s.c.): -16% and -15% |
| COc1ccccc1OCCNCc1cccnc1 [Compound C, N-(3-Pyridyl-methyl)-o-methoxy-phenoxyethylamine .2 HCl] | 1 h | – |
| Clc1ccccc1OCCCCNCCc1ccncc1 [Compound K, N-[4-Pyridyl-ethyl(2)]-o-chloro-phenoxybutylamine dioxalate monohydrate] | 2.5 h | – |
| N#Cc1ccccc1OCCNCCc1ccncc1 [Compound L, N-[4-Pyridyl-ethyl(2)]-o-cyano-phenoxyethylamine dioxalate hydrate] | 1 h | – |
| COc1ccccc1OCCNCc1ccccn1 [Compound D, N-(2-Pyridyl-methyl)-o-methoxy-phenoxyethylamine. 2 HCl] | 2.5 h | – |
| Clc1ccccc1OCCNCCc1ccncc1 [Compound G, N-[4-Pyridyl-ethyl(2)]-o-chloro-phenoxyethylamine dioxalate dihydrate] | – | Maximum blood pressure reduction, diastolic (percent of initial value) (10 mg/kg s.c.): -21% and -16%; Maximum blood pressure reduction, systolic (percent of initial value) (10 mg/kg s.c.): -17% and -15% |
| Cc1cccnc1CNCCOc1ccccc1C#N [Compound J, N-[(3-Methyl-2-pyridyl)-methyl]-o-cyano-phenoxyethylamineoxalate hydrate] | 1 h | – |
| COc1ccccc1OCCNCCc1ccccn1 [Compound B, N-[2-Pyridyl-ethyl(2)]-o-methoxy-phenoxyethylamine . 2 HCl] | 2.5 h | – |
| COc1ccccc1OCCNCc1ccncc1 [Compound E, N-(4-Pyridyl-methyl)-o-methoxy-phenoxyethylamine . 2 HCl] | 4 h | Time of maximum blood pressure reduction, hours after application (10 mg/kg p.o.): 2.5 h |
| COc1ccccc1OCCNCCc1ccncc1 [Compound A, N-[4-Pyridyl-ethyl(2)]-o-methoxy-phenoxyethylamine.2 HCl] | 1.75 h | Time of maximum blood pressure reduction, hours after application (20 mg/kg p.o.): 1 h |
